Test results: the supplement of paper PMC10849652
This is one part of the list.

Protein sequences, listed by entry. Tags and fused reporters are not part of them. Lines headed by an entry give the natural chain unless they say otherwise; changes in a name come on top.
UniProt Q15365, whole entry, looked up: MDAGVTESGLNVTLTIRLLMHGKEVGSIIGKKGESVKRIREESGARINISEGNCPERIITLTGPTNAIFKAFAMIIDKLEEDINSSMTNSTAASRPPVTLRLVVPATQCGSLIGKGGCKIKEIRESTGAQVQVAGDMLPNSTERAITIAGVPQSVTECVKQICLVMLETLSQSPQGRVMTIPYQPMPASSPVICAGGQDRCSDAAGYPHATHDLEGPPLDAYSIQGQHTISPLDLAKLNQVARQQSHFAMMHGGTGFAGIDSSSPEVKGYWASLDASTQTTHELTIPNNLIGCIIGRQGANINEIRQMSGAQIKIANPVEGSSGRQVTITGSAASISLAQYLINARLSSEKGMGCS
UniProt P11177, whole entry, looked up: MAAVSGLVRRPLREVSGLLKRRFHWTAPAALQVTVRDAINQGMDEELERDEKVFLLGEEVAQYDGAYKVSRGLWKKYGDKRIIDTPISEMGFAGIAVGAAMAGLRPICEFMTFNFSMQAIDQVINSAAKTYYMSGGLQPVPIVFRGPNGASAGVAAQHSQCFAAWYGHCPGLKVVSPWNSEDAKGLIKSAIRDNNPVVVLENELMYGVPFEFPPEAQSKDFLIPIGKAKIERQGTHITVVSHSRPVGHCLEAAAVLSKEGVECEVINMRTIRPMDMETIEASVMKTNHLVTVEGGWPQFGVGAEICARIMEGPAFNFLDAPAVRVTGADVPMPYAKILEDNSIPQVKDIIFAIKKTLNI
UniProt Q7L3T8: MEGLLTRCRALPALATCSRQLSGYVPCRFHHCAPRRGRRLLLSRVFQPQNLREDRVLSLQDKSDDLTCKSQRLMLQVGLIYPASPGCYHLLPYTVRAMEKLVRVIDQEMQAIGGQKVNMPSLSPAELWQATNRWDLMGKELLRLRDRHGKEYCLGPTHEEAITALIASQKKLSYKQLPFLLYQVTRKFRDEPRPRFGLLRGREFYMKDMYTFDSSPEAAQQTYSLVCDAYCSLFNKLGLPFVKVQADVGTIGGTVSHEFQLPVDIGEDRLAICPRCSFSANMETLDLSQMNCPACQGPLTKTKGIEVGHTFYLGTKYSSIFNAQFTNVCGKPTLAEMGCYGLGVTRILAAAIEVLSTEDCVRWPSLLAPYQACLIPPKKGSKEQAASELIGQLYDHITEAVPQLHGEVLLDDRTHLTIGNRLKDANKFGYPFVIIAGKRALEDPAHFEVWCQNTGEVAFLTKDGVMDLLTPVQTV
UniProt Q29RF7: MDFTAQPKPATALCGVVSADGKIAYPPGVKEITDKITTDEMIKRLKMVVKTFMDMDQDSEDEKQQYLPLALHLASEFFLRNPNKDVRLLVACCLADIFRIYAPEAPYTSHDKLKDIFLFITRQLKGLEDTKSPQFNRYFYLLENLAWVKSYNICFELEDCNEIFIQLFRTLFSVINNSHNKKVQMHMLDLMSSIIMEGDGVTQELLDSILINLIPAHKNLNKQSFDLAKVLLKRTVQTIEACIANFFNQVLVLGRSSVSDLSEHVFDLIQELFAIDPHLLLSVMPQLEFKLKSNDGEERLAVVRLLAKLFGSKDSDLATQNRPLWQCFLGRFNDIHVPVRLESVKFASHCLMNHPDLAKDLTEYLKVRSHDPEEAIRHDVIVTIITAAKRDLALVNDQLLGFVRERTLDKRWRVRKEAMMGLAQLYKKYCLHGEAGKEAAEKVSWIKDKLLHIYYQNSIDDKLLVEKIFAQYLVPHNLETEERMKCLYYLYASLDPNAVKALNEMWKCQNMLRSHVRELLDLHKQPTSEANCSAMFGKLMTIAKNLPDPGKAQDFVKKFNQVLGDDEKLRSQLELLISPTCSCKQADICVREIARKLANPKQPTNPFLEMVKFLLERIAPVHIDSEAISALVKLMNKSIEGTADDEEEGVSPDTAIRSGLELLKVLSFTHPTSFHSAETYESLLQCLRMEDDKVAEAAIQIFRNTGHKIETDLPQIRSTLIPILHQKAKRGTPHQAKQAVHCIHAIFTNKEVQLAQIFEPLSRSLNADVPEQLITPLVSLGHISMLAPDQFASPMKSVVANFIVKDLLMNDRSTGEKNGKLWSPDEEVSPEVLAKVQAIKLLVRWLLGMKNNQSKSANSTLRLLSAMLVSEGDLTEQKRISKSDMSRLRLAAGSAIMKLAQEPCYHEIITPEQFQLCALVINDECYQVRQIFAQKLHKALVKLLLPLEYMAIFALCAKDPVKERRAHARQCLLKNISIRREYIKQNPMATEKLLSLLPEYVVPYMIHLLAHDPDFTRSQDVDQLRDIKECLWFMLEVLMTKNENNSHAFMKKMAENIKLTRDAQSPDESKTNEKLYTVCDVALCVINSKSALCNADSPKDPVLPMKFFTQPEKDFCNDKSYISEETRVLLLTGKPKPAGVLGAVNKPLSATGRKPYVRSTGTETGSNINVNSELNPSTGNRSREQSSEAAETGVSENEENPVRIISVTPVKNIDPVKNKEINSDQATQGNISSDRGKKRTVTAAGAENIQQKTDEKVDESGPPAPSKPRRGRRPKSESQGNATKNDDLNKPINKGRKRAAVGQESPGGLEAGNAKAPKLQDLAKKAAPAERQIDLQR
UniProt Q9Y5Y5: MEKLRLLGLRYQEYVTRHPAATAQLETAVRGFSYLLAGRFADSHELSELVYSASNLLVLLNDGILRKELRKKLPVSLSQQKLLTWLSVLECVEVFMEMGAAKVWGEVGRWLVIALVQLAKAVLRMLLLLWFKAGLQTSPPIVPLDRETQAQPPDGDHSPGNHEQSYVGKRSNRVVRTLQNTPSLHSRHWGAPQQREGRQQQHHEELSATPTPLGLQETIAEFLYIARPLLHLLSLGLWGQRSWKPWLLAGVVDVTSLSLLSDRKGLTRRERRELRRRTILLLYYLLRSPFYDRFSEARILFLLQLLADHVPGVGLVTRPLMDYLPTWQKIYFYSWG
UniProt O95453: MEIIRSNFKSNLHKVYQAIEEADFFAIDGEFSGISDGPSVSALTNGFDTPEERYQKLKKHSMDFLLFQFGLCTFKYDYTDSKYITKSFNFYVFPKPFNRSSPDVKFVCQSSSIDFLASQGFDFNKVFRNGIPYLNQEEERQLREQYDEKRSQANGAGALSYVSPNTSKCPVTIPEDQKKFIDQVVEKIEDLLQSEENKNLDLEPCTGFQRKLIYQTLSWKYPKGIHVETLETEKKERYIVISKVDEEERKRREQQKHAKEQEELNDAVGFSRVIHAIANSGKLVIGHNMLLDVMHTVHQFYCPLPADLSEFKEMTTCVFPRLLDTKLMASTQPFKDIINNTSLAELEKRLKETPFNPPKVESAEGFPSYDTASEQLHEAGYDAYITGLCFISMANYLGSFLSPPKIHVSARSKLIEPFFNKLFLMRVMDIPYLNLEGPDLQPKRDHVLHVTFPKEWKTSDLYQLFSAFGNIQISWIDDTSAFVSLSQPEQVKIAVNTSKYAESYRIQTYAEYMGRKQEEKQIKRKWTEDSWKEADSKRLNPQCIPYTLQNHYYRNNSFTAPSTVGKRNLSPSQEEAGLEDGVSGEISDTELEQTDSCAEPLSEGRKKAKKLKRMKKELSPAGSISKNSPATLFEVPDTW
UniProt Q16342: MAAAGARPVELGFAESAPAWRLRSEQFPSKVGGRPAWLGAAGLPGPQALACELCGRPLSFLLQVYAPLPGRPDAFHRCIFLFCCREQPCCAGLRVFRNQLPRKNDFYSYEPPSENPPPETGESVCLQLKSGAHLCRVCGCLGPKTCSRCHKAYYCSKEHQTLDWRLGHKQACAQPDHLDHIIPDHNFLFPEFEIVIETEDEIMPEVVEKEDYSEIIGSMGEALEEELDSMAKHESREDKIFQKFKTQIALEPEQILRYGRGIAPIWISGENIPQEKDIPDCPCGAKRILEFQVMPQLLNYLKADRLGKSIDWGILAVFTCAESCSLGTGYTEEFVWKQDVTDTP
UniProt Q15084: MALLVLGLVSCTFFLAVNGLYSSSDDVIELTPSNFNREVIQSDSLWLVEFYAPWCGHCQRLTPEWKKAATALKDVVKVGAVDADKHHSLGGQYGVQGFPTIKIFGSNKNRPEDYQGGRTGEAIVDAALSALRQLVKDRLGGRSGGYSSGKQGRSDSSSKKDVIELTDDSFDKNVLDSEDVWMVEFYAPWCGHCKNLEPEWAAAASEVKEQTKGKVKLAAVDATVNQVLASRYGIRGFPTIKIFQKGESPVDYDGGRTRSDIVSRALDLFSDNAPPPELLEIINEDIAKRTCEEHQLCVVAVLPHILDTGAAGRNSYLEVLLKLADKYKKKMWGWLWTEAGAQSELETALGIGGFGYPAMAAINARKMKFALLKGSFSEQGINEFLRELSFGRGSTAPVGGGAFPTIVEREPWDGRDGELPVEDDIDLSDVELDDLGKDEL
UniProt P09874, whole entry, looked up: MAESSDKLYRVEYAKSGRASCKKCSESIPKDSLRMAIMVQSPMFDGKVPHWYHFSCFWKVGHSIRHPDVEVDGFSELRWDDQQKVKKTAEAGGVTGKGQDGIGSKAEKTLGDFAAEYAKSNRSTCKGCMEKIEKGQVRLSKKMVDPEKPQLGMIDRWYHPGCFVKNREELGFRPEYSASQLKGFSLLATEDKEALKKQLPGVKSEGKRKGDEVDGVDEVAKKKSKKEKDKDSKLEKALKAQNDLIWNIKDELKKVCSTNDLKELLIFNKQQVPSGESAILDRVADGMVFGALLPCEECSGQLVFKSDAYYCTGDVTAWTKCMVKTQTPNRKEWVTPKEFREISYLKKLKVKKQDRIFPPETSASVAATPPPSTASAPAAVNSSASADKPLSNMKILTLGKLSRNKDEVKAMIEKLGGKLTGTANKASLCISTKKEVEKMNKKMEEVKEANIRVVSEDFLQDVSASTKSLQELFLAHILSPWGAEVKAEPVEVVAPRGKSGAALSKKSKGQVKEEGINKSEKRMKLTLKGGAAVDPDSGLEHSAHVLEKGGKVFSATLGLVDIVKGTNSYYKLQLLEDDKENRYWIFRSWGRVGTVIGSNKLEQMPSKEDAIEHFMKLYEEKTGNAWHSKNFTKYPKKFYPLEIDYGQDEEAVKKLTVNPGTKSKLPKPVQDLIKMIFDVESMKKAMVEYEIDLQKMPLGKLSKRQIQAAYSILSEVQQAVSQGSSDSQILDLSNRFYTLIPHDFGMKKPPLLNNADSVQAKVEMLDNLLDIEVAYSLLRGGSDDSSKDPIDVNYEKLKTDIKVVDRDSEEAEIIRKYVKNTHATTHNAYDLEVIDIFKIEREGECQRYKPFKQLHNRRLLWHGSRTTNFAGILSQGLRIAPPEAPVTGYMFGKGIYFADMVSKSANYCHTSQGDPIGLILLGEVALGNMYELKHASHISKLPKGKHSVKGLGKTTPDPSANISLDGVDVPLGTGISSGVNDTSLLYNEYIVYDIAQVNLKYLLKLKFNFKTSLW
UniProt Q9UBV8: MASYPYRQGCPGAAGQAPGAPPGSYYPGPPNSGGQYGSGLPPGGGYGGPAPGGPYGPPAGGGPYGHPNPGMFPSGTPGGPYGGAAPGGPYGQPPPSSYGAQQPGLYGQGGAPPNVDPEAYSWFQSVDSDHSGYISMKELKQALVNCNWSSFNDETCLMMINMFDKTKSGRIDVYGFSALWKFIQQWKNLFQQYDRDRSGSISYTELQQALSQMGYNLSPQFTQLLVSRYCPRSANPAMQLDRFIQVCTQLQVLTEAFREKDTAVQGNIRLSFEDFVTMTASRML

Each target was assayed with C1COCCN1CCN2C3=CC=CC=C3N=C2NC(=O)C4=CC(=CC=C4)[N+](=O)[O-] [IRAK-1-4 Inhibitor I] (assay: log2 fold change, soluble protein after heating vs DMSO (PISA); higher = thermal stabilisation; K562 lysate, 10 uM; active = over 0.2 and 3.5 SD of the protein, either way, in both replicates (recomputed)).
Procedure, shortened: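 A 30 min treatment with 10 μM compound was applied to crude K562 extract at 1 mg/mL protein in PBS pH 7.4 with 1 mM MgCl2. Heating for 3 min spanned 48°C-58°C, after which aliquots were pooled, adjusted to 0.5% NP-40 at 4°C and spun at 21,000xg for 90 min. TMTpro 16plex LC-MS/MS of the supernatant, with channel sums equalised, gave values recorded as log-two fold change in thermal stability against solvent controls, from duplicates.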

log2 fold change, inactive:
PCBP1 (UniProt Q15365) 0.015, PDHB (UniProt P11177) 0.007, PARS2 (UniProt Q7L3T8) -0.011, PDS5A (UniProt Q29RF7) -0.015, PEX16 isoform 2 (UniProt Q9Y5Y5) -0.005, PARN (UniProt O95453) -0.006, PDCD2 (UniProt Q16342) -0.026, PDIA6 isoform 2 (UniProt Q15084) 0.002, PARP1 (UniProt P09874) -0.039, PEF1 (UniProt Q9UBV8) 0.025
